No constants are given. Whether binding was seen depends on the method and setting. In cells and extracts the contact can be indirect. Some entries that bind do so weakly or less than the wild type.
Key:
[1] = target: Caveolin-1 (human (endogenous in hAECs)) (UniProt Q03135); assay: condition: only hAECs treated with CSP7 (20 μM after silica, 10 μM after BLM); co-IP; as a1, silica- or BLM-injured hAECs treated with CSP7 (20 µM for the last 24 or 48 h of silica; 10 µM for the last 4 or 8 h of BLM) before lysis
[2] = target: Caveolin-1 (human (endogenous in hAECs)) (UniProt Q03135); assay: co-IP; endogenous proteins in lysates of hAECs exposed to silica (100 µg/ml, 72 h) or BLM (40 µg/ml, 24 h), with or without CSP7; IP by Cav1, blots for the partners; IP with non-specific IgG and inputs as controls

Chains of the proteins cited; added tags and fusions are not shown.
UniProt Q03135: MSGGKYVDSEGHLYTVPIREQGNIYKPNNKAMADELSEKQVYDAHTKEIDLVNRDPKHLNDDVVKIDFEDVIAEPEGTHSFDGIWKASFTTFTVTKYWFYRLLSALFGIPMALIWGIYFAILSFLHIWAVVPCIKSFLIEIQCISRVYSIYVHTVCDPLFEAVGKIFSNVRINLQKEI

- binding [2]: binds
Substance: Sequestosome 1 (SQSTM1/p62) (from UniProt Q13501 1-440)
- binding [1]: no binding
